Drawing on patent US20230235078A1 (University of Texas, published 2023), this text covers binding for three molecules.

The target of assay [1] is Human DDR1 extracellular domain (ECD) protein (human) (UniProt Q08345). In words: ELISA on DDR1, antibody at 10 and 1 µg/ml. On the technique in general: An ELISA detects its analyte on a solid surface through an enzyme-linked reagent.
The target in assay [2] is T1, mouse DDR1 ECD (mouse, UniProt Q03146 22-415).
T1 construct: extracellular domain; construct not described; also called mouse ECD
T1 sequence (looked up): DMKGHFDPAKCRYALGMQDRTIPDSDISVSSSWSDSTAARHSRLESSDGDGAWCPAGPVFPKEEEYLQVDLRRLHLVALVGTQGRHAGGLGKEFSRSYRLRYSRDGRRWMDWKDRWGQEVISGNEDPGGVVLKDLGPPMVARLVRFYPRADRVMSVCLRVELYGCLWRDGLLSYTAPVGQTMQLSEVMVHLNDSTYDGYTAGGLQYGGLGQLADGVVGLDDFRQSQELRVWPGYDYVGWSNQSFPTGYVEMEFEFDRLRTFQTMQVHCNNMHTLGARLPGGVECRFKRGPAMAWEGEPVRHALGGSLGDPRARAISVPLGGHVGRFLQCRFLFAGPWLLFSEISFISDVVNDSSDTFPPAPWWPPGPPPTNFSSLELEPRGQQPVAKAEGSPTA
In words: titration ELISA on mouse DDR1.

Results are given in words; binding and its absence hold for the method and conditions named. Some results given as binding are weak or reduced against the parent protein; the word gives no strength.

B1: DDR1-32 (antibody, V domains shown)
VH: QSLEESGGRLVTPGTPLTLTCTASGFSLSSYYMSWVRQAPGEGLEWIGTITTAGPLYYATWAKGRFTISKTSTTVDLKMTGPTTEDTATYFCARGHAGSIYYSYFDLWGPGTLVTVSS
VL: ELVMTQTPASVEAAVGGTVTIKCQASESINSWLAWYQQKPGQRPKLLIYDASKLASGVPSRFKGSGSGTQFTLTISDLECADAATYYCQSYYIINRSNYGNSFGGGTEVEIK
B1: the binding entry in assay [1] was “no binding (tested: 10 µg/ml)”.

B2: DDR1-33 (antibody, V domains shown)
VH: QSVEESGGRLVTPGGSLTLTCTVSGFSLSSYDMSWVRQAPGKGLEWIGISWNSGFVDYASWAKGRFSISKTSTTVDLKITSPTTEDTATYFCARLGADDIYYFNLWGPGTLVTISS
VL: ELVMTQTPASVEAAVGGTVTIKCQASETISSRLAWYQQKPGQPPKLLIYQASKLPSGVPSRFKGTGSGTEYTLTISDLECADAATYYCQGCYYGGGSFYDSAFGGGTEVVVK
notes: Rabbit variable domains; also called anti-huDDR1 #33 antibody; DDR1-33K/DDR1-33H
Consider B2, for which the binding entry in assay [2] is given as “binds”.

B3: DDR1-9 (antibody, V domains shown)
VH: QSLEESGGRLVTPGTPLTLTCTASGFSLNRYYMLWVRQAPGEGLEWIGTISYGDTTYYASWAKGRFTISKTSTTVDLKMTSPTTEDTATYFCARADTGDNGYLGLQLWGPGTLVTVSS
VL: ELVMTQTPASVEAAVGGTVTIKCQASQSIGSVLAWYQQKPGQRPKLLISGVFDLASGVPSRFKGSGSGTEFTLTISDLECADAATYYCQYIPYGSSPFGGGTEVVVK
notes: Rabbit variable domains; also called anti-huDDR1 antibody #9; DDR1-9K/DDR1-9H
In the case of B3, in assay [2], the binding result is on record as “binds”.
